The name of at least one read-out is uncertain.
Assays:
[1] = tested on: MV4;11 cells; assay: Cell viability assay (CellTiter-Glo) in MV4;11 cells; assay type: cell-based; settings: with 10 nM gilteritinib, three days, read-out: MV4, 11 IC50 (nM) + 10 nM Gil
Description: (§1) Cell Culture: RS4;11, MV4;11, MOLM-13 and other cells were cultured at 37° C. with 5% CO2 in RPMI 1640 or DMEM Medium supplemented with 10% fetal bovine serum. Cells were authenticated using the short tandem repeat (STR) assays. Mycoplasma test results were negative.
(§2) Cell viability assays: Cells were seeded at a density of 5000 cells per well in 96-well assay plates and treated with test compounds following a 8-point or 12-point 3-fold serial dilution. Three days later, cell viability was determined using the CellTiter-Glo assay kit according to the manufacturer's instructions. The dose-response curves were determined and IC50 values were calculated using the GraphPad Prism software following a nonlinear regression (least squares fit) method.
The IC50 values (nM) of each compound were determined in MV4;11 and MOLM-13 cells with or without gilteritinib (10 nM for MV4;11; and 20 nM for MOML-13) as described in the Materials and Methods subsection and calculated using the GraphPad Prism 5.0 software.

[2] = tested on: MOLM-13 cells; assay: Cell viability assay (CellTiter-Glo) in MOLM-13 cells; assay type: cell-based; settings: with gilteritinib, three days, read-out: MOLM-13 IC50 (nM) + 10 nM Gil
Description: as §1
as §2, with “method. […]” for “method.”

Row | Structure (SMILES) | IC50 [1] | IC50 [2]
1 | Cc1nc(-c2cn([C@H]3C[C@@H]3CNc3ccc4c(c3)C(=O)N(C3CCC(=O)NC3=O)C4=O)nc2C2CC2)ccc1F (relative stereo) [GS-643, 5-(((Trans-2-(3-cyclopropyl-4-(5-fluoro-6-methylpyridin-2-yl)-1H-pyrazol-1-yl)cyclopropyl)methyl)amino)-2-(2,6-dioxopiperidin-3-yl)isoindoline-1,3-dione] | > 1000 nM | > 1000 nM
2 | Cc1nc(-c2cn(CC3CC3CNc3ccc4c(c3)C(=O)N(C3CCC(=O)NC3=O)C4=O)nc2C2CC2)ccc1F (stereo not drawn) [GS-645, 5-(((2-((3-Cyclopropyl-4-(5-fluoro-6-methylpyridin-2-yl)-1H-pyrazol-1-yl)methyl)cyclopropyl)methyl)amino)-2-(2,6-dioxopiperidin-3-yl)isoindoline-1,3-dione] | > 1000 nM | –
3 | O=C1CCC(N2C(=O)c3ccc(NC[C@H]4C[C@H](n5nc(C6CC6)c6nccnc65)C4)cc3C2=O)C(=O)N1 (stereo partly drawn) [GS-648, 5-(((Trans-3-(3-cyclopropyl-1H-pyrazolo[3,4-b]pyrazin-1-yl)cyclobutyl)methyl)amino)-2-(2,6-dioxopiperidin-3-yl)isoindoline-1,3-dione] | > 1000 nM | –
4 | O=C1CCC(N2Cc3ccc(NC[C@H]4C[C@H](n5cc(-c6cnc7ccccc7n6)c(C6CC6)n5)C4)cc3C2=O)C(=O)N1 (stereo partly drawn) [GS-662, 3-(6-(((Trans-3-(3-cyclopropyl-4-(quinoxalin-2-yl)-1H-pyrazol-1-yl)cyclobutyl)methyl)amino)-1-oxoisoindolin-2-yl)piperidine-2,6-dione] | > 1000 nM | > 1000 nM
5 | O=C1CCC(N2C(=O)c3ccc(NC[C@H]4C[C@H](n5nc(C6CC6)c6cncnc65)C4)cc3C2=O)C(=O)N1 (stereo partly drawn) [GS-663, 5-(((Trans-3-(3-cyclopropyl-1H-pyrazolo[3,4-d]pyrimidin-1-yl)cyclobutyl)methyl)amino)-2-(2,6-dioxopiperidin-3-yl)isoindoline-1,3-dione] | > 1000 nM | –
6 | O=C1CCC(N2C(=O)c3ccc(NC[C@H]4C[C@H](n5cc(-c6ncccc6C6CCNCC6)c(C6CC6)n5)C4)cc3C2=O)C(=O)N1 (stereo partly drawn) [GS-665, 5-(((Trans-3-(3-cyclopropyl-4-(3-(piperidin-4-yl)pyridin-2-yl)-1H-pyrazol-1-yl)cyclobutyl)methyl)amino)-2-(2,6-dioxopiperidin-3-yl)isoindoline-1,3-dione] | > 1000 nM | > 1000 nM
7 | CN1CCC(Nc2cn([C@H]3C[C@H](CNc4ccc5c(c4)C(=O)N(C4CCC(=O)NC4=O)C5=O)C3)nc2C2CC2)CC1 (stereo partly drawn) [GS-666, 5-(((Trans-3-(3-cyclopropyl-4-((1-methylpiperidin-4-yl)amino)-1H-pyrazol-1-yl)cyclobutyl)methyl)amino)-2-(2,6-dioxopiperidin-3-yl)isoindoline-1,3-dione] | > 1000 nM | > 1000 nM
8 | Cc1ccc2c(C3CC3)nn([C@H]3C[C@H](CNc4ccc5c(c4)C(=O)N(C4CCC(=O)NC4=O)C5=O)C3)c2n1 (stereo partly drawn) [GS-672, 5-(((Trans-3-(3-cyclopropyl-6-methyl-1H-pyrazolo[3,4-b]pyridin-1-yl)cyclobutyl)methyl)amino)-2-(2,6-dioxopiperidin-3-yl)isoindoline-1,3-dione] | > 1000 nM | –
9 | COc1ccc2c(C3CC3)nn([C@H]3C[C@H](CNc4ccc5c(c4)C(=O)N(C4CCC(=O)NC4=O)C5=O)C3)c2n1 (stereo partly drawn) [GS-674, 5-(((Trans-3-(3-cyclopropyl-6-methoxy-1H-pyrazolo[3,4-b]pyridin-1-yl)cyclobutyl)methyl)amino)-2-(2,6-dioxopiperidin-3-yl)isoindoline-1,3-dione] | > 1000 nM | > 1000 nM
10 | O=C1CCC(N2C(=O)c3ccc(NC[C@H]4C[C@H](n5cc(-c6ncc(F)cc6N6CCNCC6)c(C6CC6)n5)C4)cc3C2=O)C(=O)N1 (stereo partly drawn) [GS-683, 5-(((Trans-3-(3-cyclopropyl-4-(5-fluoro-3-(piperazin-1-yl)pyridin-2-yl)-1H-pyrazol-1-yl)cyclobutyl)methyl)amino)-2-(2,6-dioxopiperidin-3-yl)isoindoline-1,3-dione] | > 1000 nM | > 1000 nM
11 | Cc1c2ccccc2nn1[C@H]1C[C@H](CNc2ccc3c(c2)C(=O)N(C2CCC(=O)NC2=O)C3=O)C1 (stereo partly drawn) [GS-688, 2-(2,6-Dioxopiperidin-3-yl)-5-(((trans-3-(3-methyl-2H-indazol-2-yl)cyclobutyl)methyl)amino)isoindoline-1,3-dione] | > 1000 nM | –
12 | Cn1nccc1-c1cn([C@H]2C[C@H](CNc3ccc4c(c3)C(=O)N(C3CCC(=O)NC3=O)C4=O)C2)nc1C1CC1 (stereo partly drawn) [GS-690, 5-(((Trans-3-(3′-cyclopropyl-2-methyl-1′H,2H-[3,4′-bipyrazol]-1′-yl)cyclobutyl)methyl)amino)-2-(2,6-dioxopiperidin-3-yl)isoindoline-1,3-dione] | > 1000 nM | > 1000 nM
13 | Cn1cncc1-c1cn([C@H]2C[C@H](CNc3ccc4c(c3)C(=O)N(C3CCC(=O)NC3=O)C4=O)C2)nc1C1CC1 (stereo partly drawn) [GS-691, 5-(((Trans-3-(3-cyclopropyl-4-(1-methyl-1H-imidazol-5-yl)-1H-pyrazol-1-yl)cyclobutyl)methyl)amino)-2-(2,6-dioxopiperidin-3-yl)isoindoline-1,3-dione] | > 1000 nM | > 1000 nM
14 | O=C1CCC(N2C(=O)c3ccc(NC[C@H]4C[C@H](n5cc(NC6CCOCC6)c(C6CC6)n5)C4)cc3C2=O)C(=O)N1 (stereo partly drawn) [GS-708, 5-(((Trans-3-(3-cyclopropyl-4-((tetrahydro-2H-pyran-4-yl)amino)-1H-pyrazol-1-yl)cyclobutyl)methyl)amino)-2-(2,6-dioxopiperidin-3-yl)isoindoline-1,3-dione] | > 1000 nM | –
15 | O=C1CCC(N2C(=O)c3ccc(NC[C@H]4C[C@H](n5cc(NC6CCC(O)CC6)c(C6CC6)n5)C4)cc3C2=O)C(=O)N1 (stereo partly drawn) [GS-709, 5-(((Trans-3-(3-cyclopropyl-4-((4-hydroxycyclohexyl)amino)-1H-pyrazol-1-yl)cyclobutyl)methyl)amino)-2-(2,6-dioxopiperidin-3-yl)isoindoline-1,3-dione] | > 1000 nM | > 1000 nM
16 | Cc1nc(-c2cn(C[C@H]3C[C@H](Nc4ccc5c(c4)C(=O)N(C4CCC(=O)NC4=O)C5=O)C3)nc2C2CC2)ccc1F (stereo partly drawn) [GS-711, 5-((Trans-3-((3-cyclopropyl-4-(5-fluoro-6-methylpyridin-2-yl)-1H-pyrazol-1-yl)methyl)cyclobutyl)amino)-2-(2,6-dioxopiperidin-3-yl)isoindoline-1,3-dione] | > 1000 nM | > 1000 nM
17 | Cc1nc(-c2cn([C@H]3C[C@H](COc4ccc5c(c4)C(=O)N(C4CCC(=O)NC4=O)C5=O)C3)nc2C2CC2)ccc1F (stereo partly drawn) [GS-715, 5-((Trans-3-(3-cyclopropyl-4-(5-fluoro-6-methylpyridin-2-yl)-1H-pyrazol-1-yl)cyclobutyl)methoxy)-2-(2,6-dioxopiperidin-3-yl)isoindoline-1,3-dione] | – | > 1000 nM
18 | Cc1nc(-c2cn([C@H]3C[C@H](CNc4cc5c(cc4F)C(=O)N(C4CCC(=O)NC4=O)C5=O)C3)nc2C2CC2)ccc1F (stereo partly drawn) [GS-716] | > 1000 nM | > 1000 nM
19 | O=C1CCC(N2C(=O)c3cc(F)c(NCCC[C@H]4C[C@H](n5cc(-c6cnc7ccccc7n6)c(C6CC6)n5)C4)cc3C2=O)C(=O)N1 (stereo partly drawn) [GS-718, 5-((3-(Trans-3-(3-cyclopropyl-4-(quinoxalin-2-yl)-1H-pyrazol-1-yl)cyclobutyl)propyl)amino)-2-(2,6-dioxopiperidin-3-yl)-6-fluoroisoindoline-1,3-dione] | > 1000 nM | > 1000 nM
20 | O=C1CCC(N2C(=O)c3ccc(NC[C@H]4C[C@H](n5ncc6ccccc65)C4)cc3C2=O)C(=O)N1 (stereo partly drawn) [GS-728, 5-(((Trans-3-(1H-indazol-1-yl)cyclobutyl)methyl)amino)-2-(2,6-dioxopiperidin-3-yl)isoindoline-1,3-dione] | > 1000 nM | –
21 | O=C1CCC(N2C(=O)c3ccc(NC[C@H]4C[C@H](n5nc(C6CC6)c6cc(N7CCNCC7)ccc65)C4)cc3C2=O)C(=O)N1 (stereo partly drawn) [GS-740, 5-(((Trans-3-(3-cyclopropyl-5-(piperazin-1-yl)-1H-indazol-1-yl)cyclobutyl)methyl)amino)-2-(2,6-dioxopiperidin-3-yl)isoindoline-1,3-dione] | > 1000 nM | –
22 | O=C1CCC(N2C(=O)c3ccc(NC[C@H]4C[C@H](n5cc(-c6ncccc6C6CNC6)c(C6CC6)n5)C4)cc3C2=O)C(=O)N1 (stereo partly drawn) [GS-745, 5-(((Trans-3-(4-(3-(azetidin-3-yl)pyridin-2-yl)-3-cyclopropyl-1H-pyrazol-1-yl)cyclobutyl)methyl)amino)-2-(2,6-dioxopiperidin-3-yl)isoindoline-1,3-dione] | > 1000 nM | > 1000 nM
23 | Nc1cnc2c(c1)c(C1CC1)nn2[C@H]1C[C@H](CNc2ccc3c(c2)C(=O)N(C2CCC(=O)NC2=O)C3=O)C1 (stereo partly drawn) [GS-756, 5-(((Trans-3-(5-amino-3-cyclopropyl-1H-pyrazolo[3,4-b]pyridin-1-yl)cyclobutyl)methyl)amino)-2-(2,6-dioxopiperidin-3-yl)isoindoline-1,3-dione] | > 1000 nM | > 1000 nM
24 | O=C1CCC(N2C(=O)c3ccc(NC[C@H]4C[C@H](n5nc(C6CC6)c6c(N7CCNCC7)cccc65)C4)cc3C2=O)C(=O)N1 (stereo partly drawn) [GS-757, 5-(((Trans-3-(3-cyclopropyl-4-(piperazin-1-yl)-1H-indazol-1-yl)cyclobutyl)methyl)amino)-2-(2,6-dioxopiperidin-3-yl)isoindoline-1,3-dione] | > 1000 nM | > 1000 nM
